According to patent US20120101153A1, “ROCAGLAOL DERIVATIVES AS CARDIOPROTECTANT AGENTS AND AS ANTINEOPLASTIC AGENTS” (Universite De Strasbourg, priority 2008, published 2012):
“Also recorded” adds a separate entry of the source. For some of these results: For at least one compound, name, drawing or mass did not settle the structure. Some entries share one result that the patent states for a list of compounds.

Tests used:
HSP27 = assay: Western blot of HSP27 phosphorylation in H9c2 cells; type: cell-based, rat
H9c2 cardiomyocytes [1] = assay: Serum starvation apoptosis in H9c2 cardiomyocytes (FACS); type: cell-based, rat; settings: FL3 20 nM, 1% serum, 72 h
caspase-3 = assay: Western blot of active caspase 3 in H9c2 cardiomyocytes; type: cell-based, rat; settings: 1 nM FL3 plus 1 μM doxorubicin, 14 h
H9c2 cardiomyocytes [2] = settings: 10 or 100 nM; apoptosis induced by doxorubicin in H9c2 cells
Method: The medium was changed every 2-3 days.
H9c2 cells were plated for 24 h in 100 mm Petri dishes at 0,7×10^4 cells/cm^2. Next, the cells were washed and cultured for 12 h in glucose-free medium (Gibco, DMEM w-L-glutamine, w/o D-glucose, sodium pyruvate) supplemented with only 1% fetal calf serum. […] Cells were washed, and subsequently FACS analyses were performed.
Apoptosis was analysed by fluorescence-activated cell sorting analysis (FACS-Calibur, Becton-Dickinson Biosciences). 0,5×10^6 cells were harvested, washed with Annexin Binding Buffer (0,01 M HEPES, 0,14 M NaCl, 2,5 mM CaCl2) and labeled with annexin V (dilution 1:50) and propidium iodide (6,7 μg/ml). All assays were performed at least in triplicate, and the results were analyzed by BD Cell Quest Pro software (Becton-Dickinson Biosciences, Le Pont De Claix, France).

SMILES | Activity for cytotoxicity and cardioprotection (FIG. 13) (H9c2 cardiomyocytes [2]) | also measured
COc1cc(OC)c2c(c1)O[C@@]1(c3ccc(Br)cc3)[C@H](c3ccccc3)C[C@@H](O)[C@@]21O (racemic) [FL3, bromo-demethoxy-rocaglaol] | – | HSP27 phosphorylation (HSP27; FL3, 1 h treatment, FIG. 12B): high level of phosphorylation; also recorded: maximally induces HSP27 phosphorylation; HSP27 phosphorylation (HSP27; FL3, after 4 h): significantly decreased; Apoptosis induced by serum starvation (H9c2 cardiomyocytes [1]): strongly reduced the apoptosis; Doxorubicin-mediated caspase-3 activity (caspase-3): reduced doxorubicin-mediated caspase-3 activity; also recorded: blocked
COC(=O)[C@H]1[C@@H](O)[C@@]2(O)c3ccc(OC)cc3O[C@@]2(c2ccc(Br)cc2)[C@@H]1c1ccccc1 (racemic) [FL5, Methyl 3a-(4-bromophenyl)-1,8b-dihydroxy-8-methoxy-1-oxo-3-phenyl-2,3-3a,8b-tetrahydro-cyclopenta[b]benzofuran-2-carboxylate] | showed activity for cytotoxicity and cardioprotection | –
COC(=O)[C@H]1[C@@H](O)[C@@]2(O)c3c(OC)cc(OC)cc3O[C@@]2(c2ccc(Br)cc2)[C@@H]1c1ccccc1 (racemic) [FL10, Methyl 3a-(4-bromophenyl)-1,8b-dihydroxy-6,8-dmethoxy-1-oxo-3-phenyl-2,3-3a,8b-tetrahydro-cyclopenta[b]benzofuran-2-Carboxylate] | showed activity for cytotoxicity and cardioprotection | –
COc1cc(OC)c2c(c1)O[C@@]1(c3ccc(Br)cc3)[C@H](c3ccccc3)[C@@H](C(=O)N(C)C)[C@@H](O)[C@@]21O (racemic) [FL12, 3a-(4-Bromophenyl)-1,8b-dihydroxy-6,8-dimethoxy-N,N-dimethyl-1-oxo-3-phenyl-2,3-3a,8b-tetrahydro-cyclopenta[b]benzofuran-2-carboxamide] | showed activity for cytotoxicity and cardioprotection | –
CNC(=O)[C@H]1[C@@H](O)[C@@]2(O)c3c(OC)cc(OC)cc3O[C@@]2(c2ccc(Br)cc2)[C@@H]1c1ccccc1 (racemic) [FL13, 3a-(4-Bromophenyl)-1,8b-dihydroxy-6,8-dimethoxy-N-methyl-1-oxo-3-phenyl-2,3-3a,8b-tetrahydro-cyclopenta[b]benzofuran-2-carboxamide] | showed activity for cytotoxicity and cardioprotection | –
COc1cc(OC)c2c(c1)O[C@@]1(c3ccc(Br)cc3)[C@H](c3ccccc3)[C@@H](C(N)=O)[C@@H](O)[C@@]21O (racemic) [FL14, 3a-(4-Bromophenyl)-1,8b-dihydroxy-6,8-dimethoxy-1-oxo-3-phenyl-2,3-3a,8b-tetrahydro-cyclopenta[b]benzofuran-2-carboxamide] | showed activity for cytotoxicity and cardioprotection | –
COc1ccc([C@@]23Oc4cc(OC)cc(OC)c4[C@]2(O)[C@H](O)C[C@H]3c2cccc(F)c2)cc1 (racemic) [FL15, 3a-(4-methoxyphenyl)-6,8-dimethoxy-3-(3-fluorophenyl)-1,2,3,3a-tetrahydro-cyclopenta[b]benzofuran-1,8b(1H)-diol] | showed activity for cytotoxicity and cardioprotection | –
COC(=O)[C@H]1[C@@H](O)[C@@]2(O)c3c(OC)cc(OC)cc3O[C@@]2(c2ccc(OC)cc2)[C@@H]1c1cccc(F)c1 (racemic) [FL16, Methyl 3a-(4-methoxyphenyl)-1,8b-dihydroxy-6,8-dimethoxy-1-oxo-3-(3-fluorophenyl)-2,3-3a,8b-tetrahydro-cyclopenta[b]benzofuran-2-carboxylate] | showed activity for cytotoxicity and cardioprotection | –
COC(=O)[C@H]1[C@@H](O)[C@@]2(O)c3c(OC)cc(OC)cc3O[C@@]2(c2ccc(Br)cc2)[C@@H]1c1cccc(F)c1 (racemic) [FL17, Methyl 3a-(4-bromophenyl)-1,8b-dihydroxy-6,8-dmethoxy-1-oxo-3-(3-fluorophenyl)-2,3-3a,8b-tetrahydro-cyclopenta[b]benzofuran-2-carboxylate] | showed activity for cytotoxicity and cardioprotection | –
COc1cc(OC)c2c(c1)O[C@@]1(c3ccc(Br)cc3)[C@H](c3cccc(F)c3)[C@@H](C(N)=O)[C@@H](O)[C@@]21O (racemic) [FL18, 3a-(4-Bromophenyl)-1,8b-dihydroxy-6,8-dimethoxy-1-oxo-3-(3-fluorophenyl)-2,3-3a,8b-tetrahydro-cyclopenta[b]benzofuran-2-carboxamide] | showed activity for cytotoxicity and cardioprotection | –
